Reference: PubChem BioAssay AID602196 (INSERM, 2012)
The deposit covers about 23,000 reagents; below is an unselected part. 455 of them (2%) were called active. 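Active includes both protection and sensitisation; some change values fall well beyond the stated -50 to +50 range.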 Unmarked entries are inactive. Reagents against one gene are numbered here. Further read-outs or replicates are left out here. The record does not give: the amount of reagent.

- Aim: 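Modifiers of cisplatin sensitivity in A549 cells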
- Cell system: human A549 lung cancer cells
- Reagent: siRNA pair against human genes
- Duration: 48 h transfection before cisplatin; time from cisplatin to read-out not stated
- Treatment: cisplatin at a dose killing half of control-siRNA cells; exact dose and duration not given
- Measured: 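Cisplatin cell death as a shift from the 50% death seen with control siRNA; siRNAs toxic or growth-blocking alone scored 0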
- Direction: two-siRNA summed score (-2 to +2): higher = both siRNAs protect from cisplatin killing; -2 means both sensitise; mean protection from cisplatin (shift in death) and protection from cisplatin (shift in death), siRNA C: higher = protection from cisplatin killing
- Rule for the call: 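siRNAs harmful alone (LDH or WST-1) get 0; others get +1 for less and -1 for more cisplatin killing; genes are active when the two siRNAs give the same sign, summing to ±2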
- Calls: active = both siRNAs shift cisplatin killing the same way; inactive = no consistent shift, or siRNA harmful alone

no.	target	reagent	two-siRNA summed score (-2 to +2)	mean protection from cisplatin (shift in death) (%)	protection from cisplatin (shift in death), siRNA C (%)
1	NUDT18 (nudix hydrolase 18)	1	0	3.1	6.6
2	ACO1 (aconitase 1)	1	0	-6.8	-6.2
3	ASCC3 (activating signal cointegrator 1 complex subunit 3)	1	0	6.4	9.2
4	ASCC3 (activating signal cointegrator 1 complex subunit 3)	2	1	9	13.5
5	SDHD (succinate dehydrogenase complex subunit D)	1	1	8.6	2.8
6	IFITM1 (interferon induced transmembrane protein 1)	1	0	0.5	-7.2
7	MDM4 (MDM4 regulator of p53)	1	0	12.3	20.7
8	GTF2E2 (general transcription factor IIE subunit 2)	1	0	1.9	0
9	MTMR12 (myotubularin related protein 12)	1	0	-0.3	2.5
10	NOG (noggin)	1	1	13.2	2.4
11	MRPS28 (mitochondrial ribosomal protein S28)	1	0	-10	-7.6
12	NMRK2 (nicotinamide riboside kinase 2)	1	1	21.8	22.3
13	SLC23A3	1	0	3.7	-3.1
14	TMCC2 (transmembrane and coiled-coil domain family 2)	1	0	-5.7	-12.3
15	MMP1 (matrix metallopeptidase 1)	1	0	1.8	14.5
16	KLHL42 (kelch like family member 42)	1	0	2.1	-0.7
17	EPC1 (enhancer of polycomb 1)	1	0	0.8	12.6
18	IZUMO1 (izumo sperm-oocyte fusion 1)	1	1	20.5	22.9
19	LOC283029	1	0	5.5	0.8
20	POP7 (POP7 ribonuclease P/MRP subunit)	1	0	13.3	14.8
21	PLEKHA5 (pleckstrin homology domain containing A5)	1	-1	-11.6	-15.8
22	PHOSPHO1 (phosphoethanolamine/phosphocholine phosphatase 1)	1	-1	-13.6	-15.4
23	KRT72 (keratin 72)	1	0	3.9	5
24	AP1S1 (adaptor related protein complex 1 subunit sigma 1)	1	0	9.2	13.5
25	CFAP157 (cilia and flagella associated protein 157)	1	0	8.9	7.7
26	MFHAS1 (multifunctional ROCO family signaling regulator 1)	1	-1	0.2	19.9
27	NRP1 (neuropilin 1)	1	0	-4.2	-8.5
28	SLC16A4	1	0	6	1.7
29	MPV17L2 (MPV17 mitochondrial inner membrane protein like 2)	1	0	-2.1	-4.2
30	FASLG (Fas ligand)	1	0	6.9	9.6
31	ALG9 (ALG9 alpha-1,2-mannosyltransferase)	1	0	4.8	4.9
32	EEF1A1 (eukaryotic translation elongation factor 1 alpha 1)	1	0	-12.6	-18.9
33	PSKH1 (protein serine kinase H1)	1	0	6.4	11.3
34	RPS3A (ribosomal protein S3A)	1	0	31.8	40.4
35	LOC389856	1	0	2.1	8.4
36	LOC442426	1	0	17.6	23.4
37	ARL6IP4 (ARF like GTPase 6 interacting protein 4)	1	0	16.9	-1.3
38	AKR1C1 (aldo-keto reductase family 1 member C1)	1	0	-8.3	-0.4
39	AKAP8L (A-kinase anchoring protein 8 like)	1	0	2.2	11.9
40	LOC440978	1	1	16.4	1.4
41	OSGIN1 (oxidative stress induced growth inhibitor 1)	1	0	3.7	-1.9
42	MT1H (metallothionein 1H)	1	0	0.7	15.7
43	TMCC1 (transmembrane and coiled-coil domain family 1)	1	0	-2.3	-0.8
44	TMCC1 (transmembrane and coiled-coil domain family 1)	2	0	15.6	9.6
45	SCGB1D1 (secretoglobin family 1D member 1)	1	0	5.4	-1.4
46	MPDU1 (mannose-P-dolichol utilization defect 1)	1	0	-5.4	1.1
47	PBX1 (PBX homeobox 1)	1	-1	-9.9	-14.8
48	ABHD3 (abhydrolase domain containing 3, phospholipase)	1	1	13.1	17.6
49	TOP2B (DNA topoisomerase II beta)	1	0	6.9	6.4
50	ITPR2 (inositol 1,4,5-trisphosphate receptor type 2)	1	0	14.1	24.9
51	LOC441039	1	0	1.4	-8.6
52	LPAR5 (lysophosphatidic acid receptor 5)	1	-1	-3.3	-16.1
53	TFF1 (trefoil factor 1)	1	-2 (active)	-32.2	-31.5
54	TAAR3P (trace amine associated receptor 3, pseudogene)	1	0	-0.1	10.3
55	UPK1B (uroplakin 1B)	1	0	6.5	0.9
56	CARNMT1 (carnosine N-methyltransferase 1)	1	0	9.1	5.5
57	OTUD7B (OTU deubiquitinase 7B)	1	0	-9.5	-7.4

Part of the list above, showing only “protection from cisplatin (shift in death), siRNA C (%)”.
KRT72 (keratin 72): 5
AP1S1 (adaptor related protein complex 1 subunit sigma 1): 13.5
CFAP157 (cilia and flagella associated protein 157): 7.7
MFHAS1 (multifunctional ROCO family signaling regulator 1): 19.9
NRP1 (neuropilin 1): -8.5
SLC16A4: 1.7
